From PubChem BioAssay AID2551 (National Center for Advancing Translational Sciences (NCATS), 2010)
About 17,000 (5.5%) of roughly 310,000 compounds were called active. The inconclusive results got no clear call from the source; some entries with a clear call stand among them for comparison. Calls come from the whole dose curve; as a rule, active = well fitted inhibition curve with a large enough effect; inconclusive = small, poorly fitted or top-dose-only effect, or effect the other way; inactive = no such curve, though single readings can be large or run the other way. Where the call is inconclusive, the potency comes from a doubtful curve fit.

Sequences of proteins named here, by UniProt entry; tags and fusion partners are left off. A change or cut given only in a name is not applied to a line headed by its entry.
UniProt P51450: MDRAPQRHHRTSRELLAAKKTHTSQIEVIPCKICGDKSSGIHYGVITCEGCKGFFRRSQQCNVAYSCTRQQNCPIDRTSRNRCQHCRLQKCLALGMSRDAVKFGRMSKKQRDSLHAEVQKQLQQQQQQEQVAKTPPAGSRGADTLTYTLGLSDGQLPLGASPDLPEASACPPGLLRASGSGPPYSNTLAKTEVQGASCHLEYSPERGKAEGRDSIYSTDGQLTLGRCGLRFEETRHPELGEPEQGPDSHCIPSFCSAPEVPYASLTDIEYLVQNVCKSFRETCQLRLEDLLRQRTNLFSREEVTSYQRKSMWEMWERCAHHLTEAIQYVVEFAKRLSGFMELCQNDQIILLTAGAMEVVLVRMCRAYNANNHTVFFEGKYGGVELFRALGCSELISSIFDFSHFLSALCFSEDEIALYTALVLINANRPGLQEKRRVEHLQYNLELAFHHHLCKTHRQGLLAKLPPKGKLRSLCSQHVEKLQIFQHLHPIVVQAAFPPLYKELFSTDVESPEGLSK

target: Nuclear receptor ROR-gamma (Mus musculus) (UniProt P51450); test: qHTS for inhibitors of ROR gamma transcriptional activity; settings: Drosophila S2 Gal4-RORgamma UAS-luciferase reporter, 20 h; activity change, negative = inhibition: at 53.6 µM (top of the series); note: nearly all actives have a fitted effect of over 60% in size
Outline: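 In this cell-based reporter format, copper sulfate (700 uM final) drives Gal4–ROR gamma fusion expression from a metallothionein promoter in Drosophila Schneider cells; compounds preincubated 1 hr, reporter read after 20 hr at ambient temperature.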
% is set by controls: 0 for no effect and ±100 for the full control effect; potency is the fitted concentration of half-maximal effect.

Structure (SMILES)	Potency	activity change, negative = inhibition
O=C(Nc1ccc(OC(F)F)cc1)Nc1cccc(C(F)(F)F)c1	inconclusive: 35.5 µM [inhibitor, single point]	
O=C(Nc1nc2ccccc2s1)c1ccc2c(c1)OCO2	active: 7.94 µM	
COc1ccccc1NC(=O)CSc1nnc(C)s1	inactive	
CCCCCn1cnc2c(=S)nc(N)[nH]c21	inconclusive: 2.82 µM [inhibitor, partial curve, poor fit]	
Fc1ccc(-c2nnc(NC3=NCCCCC3)o2)cc1	active: 2.82 µM	
OCCCc1nc2n(n1)C(c1cccs1)C=C(c1ccc(Br)cc1)N2 (configuration not stated)	inconclusive: 8.91 µM [activator, partial curve, poor fit]	
NCCNC(=O)Cn1c(=O)c2c3c(sc2n(Cc2ccccc2)c1=O)CCCC3	inactive	
CCOc1ccc(N2C(=O)CC(SC(=NC)Nc3ccc(F)cc3)C2=O)cc1 (configuration not stated)	inconclusive: 17.8 µM [activator, single point]	
CC/C(=N\NC(=O)c1ccc2c(c1)OCO2)c1ccccc1	inconclusive: 12.6 µM [inhibitor, single point]	
O=C1CSC(c2ccccc2)N1c1nc(-c2ccc(Cl)cc2Cl)cs1 (configuration not stated)	inactive	
CC(C(=O)NCc1ccco1)n1cc(C(=O)c2ccco2)c2ccccc21 (configuration not stated)	inactive	
COc1ccccc1Cn1c(=S)[nH]c2cc(C(=O)NCCCN3CCOCC3)ccc2c1=O	inconclusive: 35.5 µM [inhibitor, single point]	
COc1cc(/C=C2\SC(c3ccc(C)cc3)=NC2=O)ccc1O	active: 14.1 µM	
COc1ccc(/C=C/C(=O)Nc2nc(C)cc(C)n2)cc1OC	inactive	
Cc1ccn(-c2cccc(-n3ccc(C)n3)n2)n1	inconclusive: 35.5 µM [inhibitor, single point]	
CCOC(=O)C1CCCN(Cc2ccc(-c3ccccc3)cc2)C1 (configuration not stated)		inactive: -17.2% [at 1.91 µM]
C=CCc1ccc(OCCOCCOc2ccccc2[N+](=O)[O-])c(OC)c1	inconclusive: 20 µM [activator, partial curve]	
CCN(CC)c1ccc(-c2nn3c(-c4ccccc4OC)nnc3s2)cc1	inconclusive: 20 µM [inhibitor, single point]	
OCCOCCNc1ncnc2c1cnn2-c1ccc(Cl)cc1	inconclusive: 0.398 µM [activator, full curve]	
CN1CCN(CCCN2c3ccccc3Sc3ccccc32)CC1	inactive	
O=C(Nc1ccccc1)Nc1ccc(Br)c(Cl)c1	inconclusive: 12.6 µM [activator, partial curve]	
Cc1ccc(-c2noc(CSc3ccccc3)n2)cc1	inconclusive: 0.0447 µM [activator, full curve, poor fit]	
COc1ccc(Cc2noc(-c3ccc([N+](=O)[O-])cc3)n2)cc1OC	inconclusive: 22.4 µM [activator, single point]	
O=C1C2=CC[C@H]3C(=O)N(c4cccc(Oc5ccccc5)c4)C(=O)[C@@H]3[C@@H]2[C@H](O)[C@@H]2O[C@H]12	active: 2.24 µM	

Structure (SMILES)	Potency	activity change, negative = inhibition
Cc1ccc(-c2nc(CSCC(=O)Nc3cc(C)on3)c(C)o2)cc1	inconclusive: 20 µM [inhibitor, single point]	
Cc1ccc(OCc2nc(-c3cccnc3)no2)cc1C	inconclusive: 10 µM [activator, partial curve]	
COCCNC(=O)C(=O)NCC1OCCN1S(=O)(=O)c1ccc(C)cc1 (configuration not stated)	inconclusive: 35.5 µM [inhibitor, single point]	
COc1ccc(-c2[nH]c(-c3ccc(C)cc3)nc2SCC(=O)NC2CCCC2)cc1	inconclusive: 11.2 µM [activator, partial curve]	
COC(=O)c1ccc(-n2cc(-c3ccc(OC)cc3)[nH]c2=S)cc1	active: 3.16 µM	
COc1ccc(/C=C(/NC(=O)c2ccco2)C(=O)N2CCCCCC2)cc1OC	inactive	
CCCn1c(C)cc(C(=O)CSc2nc3nc(C)cc(C)n3n2)c1C	inconclusive: 5.62 µM [activator, partial curve]	
Fc1ccc(-n2c(CN3CCCCC3)n[nH]c2=S)cc1	inconclusive: 35.5 µM [inhibitor, single point]	
Cn1c(SCC(=O)c2cc3ccccc3o2)nnc1-c1ccccc1	inconclusive: 7.08 µM [activator, partial curve, poor fit]	
CCOC(=O)c1ccccc1NC(=O)CSc1nc(N)cc(=O)[nH]1	inactive	
O=C(/C=C/c1ccco1)Nc1ccccc1N1CCCC1	inconclusive: 35.5 µM [inhibitor, single point]	
CCOc1ccccc1NC(=S)NC(=O)C1CC1	inconclusive: 2.24 µM [inhibitor, full curve, poor fit]	
CCc1ccc(-c2cc3c(=O)n(CC(=O)NCCCN4CCN(Cc5ccccc5)CC4)nc(C)n3n2)cc1	inconclusive: 35.5 µM [inhibitor, single point]	
O=C(Nc1ccc2ccccc2c1)c1cc(F)c(F)cc1Cl	inconclusive: 0.282 µM [activator, full curve, poor fit]	
Cc1ccc(NC(=S)NCc2ccc3c(c2)OCO3)cc1	active: 12.6 µM	
C[C@@H](C(=O)Nc1ccc2ccccc2c1)[C@H]1C[C@]1(C)[C@H](NC(=O)c1ccccc1)c1ccccc1	inconclusive: 35.5 µM [activator, single point]	
COC(=O)[C@@H](NC(=O)c1ccc2c(c1)S(=O)(=O)c1ccccc1C2=O)C(C)C	inactive	
COC(=O)N/N=C/c1cn(CCOc2cccc(OC)c2)c2ccccc12	inactive	
COc1ccc2c(c1)-c1c(ssc1=S)C(C)(C)N2S(=O)(=O)c1ccc(C)cc1	active: 8.91 µM	
COc1ccc(C(=O)N/N=C/c2cc3ccccc3[nH]c2=S)cc1	active: 8.91 µM	
CCOC(=O)CNS(=O)(=O)c1ccc(S(=O)(=O)NC2CC2)cc1	inconclusive: 1.26 µM [inhibitor, single point]	
COc1ccc(NC(=O)COC(=O)C(CC(C)C)N2C(=O)C3CC=CCC3C2=O)cc1Cl (configuration not stated)	inactive	
CCOc1cc(/C=C2/C(=O)ON=C2C)ccc1OCc1ccccc1F	inconclusive: 35.5 µM [inhibitor, single point]	
CCOc1cc(C2c3c(-c4ccccc4)n[nH]c3C(=O)N2c2ccc(C(=O)O)cc2)ccc1O (configuration not stated)	inactive	

Single records (already shown).
CCOc1cc(C2c3c(-c4ccccc4)n[nH]c3C(=O)N2c2ccc(C(=O)O)cc2)ccc1O (configuration not stated) is listed as Potency: inactive
CCOC(=O)CNS(=O)(=O)c1ccc(S(=O)(=O)NC2CC2)cc1 is listed as Potency: inconclusive: 1.26 µM [inhibitor, single point]
COC(=O)N/N=C/c1cn(CCOc2cccc(OC)c2)c2ccccc12 is listed as Potency: inactive
COc1ccc(C(=O)N/N=C/c2cc3ccccc3[nH]c2=S)cc1 is listed as Potency: active: 8.91 µM

Further compounds follow:

Structure (SMILES)	Potency	activity change, negative = inhibition
COc1ccc(NC(=O)Nc2cccc3cccnc23)cc1	inactive	
FC(F)(F)c1ccccc1NC(=S)N/N=C1\CC2CC=CC12 (configuration not stated)	active: 0.501 µM	
Cc1cccc(/C(N)=N/OC(=O)c2cccc3ccccc23)c1	active: 1.12 µM	
CC(C)(C)NC(=O)C(c1ccncc1)N(C(=O)Cn1nnc(-c2ccc(F)cc2)n1)c1ccccc1F (configuration not stated)	active: 12.6 µM	
O=C(N/N=C\C=C\c1ccc(Br)cc1)c1ccc2c(c1)OCO2	active: 12.6 µM	
CCc1ccc(NC(=O)COc2ccc(/C=C(/C#N)c3nc4ccccc4[nH]3)cc2OC)cc1	active: 2.82 µM	
COc1ccc(OC)c(NC(=S)N(CCc2c(C)[nH]c3ccc(C)cc23)Cc2cccs2)c1	active: 10 µM	
COc1ccc(OC)c2c(N3CC(C)OC(C)C3)cc(C(F)(F)F)nc12 (configuration not stated)	inconclusive: 0.794 µM [activator, full curve, poor fit]	
Cc1ccccc1NC(=S)NNC(=O)c1csc2c1CCC(C)C2 (configuration not stated)	inconclusive: 11.2 µM [inhibitor, single point]	
COc1cccc(Nc2nc(-c3sc(C)nc3C)cs2)c1	inconclusive: 7.94 µM [activator, partial curve, poor fit]	
COC(=O)c1ccc(NC(=O)CSCc2ccccc2)cc1	inconclusive: 6.31 µM [activator, single point]	
CCOC(=O)C1C(c2ccccc2)NC(=S)NC1(C)O (configuration not stated)	inconclusive: 22.4 µM [inhibitor, single point]	
Cc1cc(OCC(=O)N2CCc3ccccc3C2)c2c(-c3ccccc3)cc(=O)oc2c1	inactive	
CCOc1ccc(N2C(=O)S/C(=C\c3cccn3C)C2=O)cc1	inconclusive: 14.1 µM [activator, single point]	
COc1ccc(N2CCN(C(=O)CSc3nnc(Cn4nnc5ccccc54)n3C)CC2)cc1	inactive	
Nc1nc(NC(=O)c2ccco2)nn1-c1ccccc1	inconclusive: 31.6 µM [inhibitor, single point]	
CCOC(=O)N/N=C/C(Cl)=C/c1ccccc1	inconclusive: 1.78 µM [activator, full curve, poor fit]	
Cc1ccc2nc(C3CCCCC3)[nH]c2c1	inconclusive: 17.8 µM [inhibitor, single point]	
CC(C)Cn1c(-c2ccco2)n[nH]c1=S	active: 10 µM	
Cc1nn(C)c(Cl)c1S(=O)(=O)N[C@@H](c1ccccc1)[C@]1(C)C[C@H]1[C@@H](C)C(=O)Nc1ccc2ccccc2c1	inconclusive: 8.91 µM [activator, partial curve]	
O=c1nc(N/N=C/c2ccccn2)cn[nH]1	inconclusive: 11.2 µM [inhibitor, single point]	
NC[C@@H]1O[C@H](C23CC4CC(CC(C4)C2)C3)Cc2c1ccc(O)c2O	inconclusive: 31.6 µM [inhibitor, single point]	
Cc1ccc(SCc2[nH]nc3c2C(c2ccc(C)o2)C(C#N)=C(N)O3)cc1 (configuration not stated)	inactive	
Cc1cccc(N2CCN(C(=O)CCC(=O)N3CC(C)Oc4ccccc43)CC2)c1C (configuration not stated)	inconclusive: 15.8 µM [activator, single point]	
